Source: PubChem BioAssay AID1259267 (Sanger Institute, 2017)

Test: 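Essential and drug-synergistic knock-downs in GP5D bowel cancer cells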 (primary screen)
Cell system: human GP5D colorectal cancer cells
Reagents: siRNA pool against human genes
Treatment: anchor drugs at low dose: BYL719 1 µM, cetuximab 5 µg/ml, trametinib 10 nM, or DMSO vehicle
Detection: 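Viability against non-targeting pool, replicate mean: robust z-score for knock-down alone, fraction with DMSO, synergy with BYL719 1 µM, cetuximab 5 µg/ml, trametinib 10 nM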
Reading the numbers: robust z-score, knock-down alone and viability with DMSO: higher = more viable cells; synergy score with trametinib: higher = stronger synthetic lethal synergy with drug
Hit rule: 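a robust z-score below -3 for the knock-down by itself makes a gene active, i.e. essential alone; synergy scores are ignored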
Calls: active = essential alone; inactive = not essential
The whole screen tested 794 reagents; shown is a part drawn at random. Over the whole deposit, 9 (1.1%) are marked active. 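Viability capped at 1; calls reflect loss of viability from knock-down alone, not synergy with drugs.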 Unmarked entries are inactive. Not all columns of the deposit are shown. Not stated in the record: the amount of reagent, the time to read-out.

| gene | robust z-score, knock-down alone | viability with DMSO (fraction of control) | synergy score with trametinib |
| --- | --- | --- | --- |
| MYLK | -0.676 | 0.683 | 0.132 |
| MARK2 | -0.2 | 0.784 | 0.0917 |
| CHUK | 0.125 | 0.853 | -0.285 |
| AURKB | 0.817 | 1 | 0.00119 |
| PAK2 | 0.817 | 1 | 0.0842 |
| NEK3 | -2.57 | 0.283 | -0.224 |
| DTYMK | -0.176 | 0.789 | -0.13 |
| STK35 | -1.02 | 0.61 | 0.00114 |
| PRKAA2 | 0.817 | 1 | 0.116 |
| NTN4 | -0.945 | 0.627 | -0.0925 |
| SRPK2 | 0.817 | 1 | -0.111 |
| TEX14 | 0.817 | 1 | 0.243 |
| MED24 | 0.817 | 1 | 0.147 |
| GK | 0.817 | 1 | 0.0177 |
| TEK | 0.817 | 1 | -0.0236 |
| TYRO3 | 0.817 | 1 | 0.05 |
| CKS2 | 0.817 | 1 | -0.16 |
| HCK | -0.665 | 0.686 | 0.244 |
| BCR | 0.47 | 0.926 | 0.0998 |
| PI4K2A | -0.952 | 0.625 | -0.498 |

A stretch taken from the entries so far, as a working copy:
| gene | robust z-score, knock-down alone | viability with DMSO (fraction of control) | synergy score with trametinib |
| --- | --- | --- | --- |
| MYLK | -0.676 | 0.683 | 0.132 |
| MARK2 | -0.2 | 0.784 | 0.0917 |
| CHUK | 0.125 | 0.853 | -0.285 |
